We go through one molecule from publication PMC6092398, “Revealing circadian mechanisms of integration and resilience by visualizing clock proteins working in real time” (Nature Communications, 2018).

Assay [1] deals with KaiC with deletion of C-terminal tentacles (KaiC-ΔC) (S. elongatus). Put plainly: high-speed atomic force microscopy (HS-AFM); KaiC hexamers immobilised on bare mica (CI end up, C-terminal side attached to the mica), KaiA added to the observation buffer; 20 mM Tris-HCl pH 8.0, 5 mM MgCl2, no ATP, 25-28 °C (Fig. 1a, c); both purified.
The target is the same in assay [2]. Put plainly: high-speed atomic force microscopy (HS-AFM); KaiC hexamers immobilised on AP-mica (CII end up, C-terminal tentacles exposed), KaiA added to the observation buffer; 20 mM Tris-HCl pH 8.0, 5 mM MgCl2, no ATP, 25-28 °C (Fig. 1b, d); both purified.

These are yes or no findings as the source states them, for the method shown.

B1: KaiA (natural protein, S. elongatus, UniProt Q79PF6 1-284, looked up)
chain: MLSQIAICIWVESTAILQDCQRALSADRYQLQVCESGEMLLEYAQTHRDQIDCLILVAANPSFRAVVQQLCFEGVVVPAIVVGDRDSEDPDEPAKEQLYHSAELHLGIHQLEQLPYQVDAALAEFLRLAPVETMADHIMLMGANHDPELSSQQRDLAQRLQERLGYLGVYYKRDPDRFLRNLPAYESQKLHQAMQTSYREIVLSYFSPNSNLNQSIDNFVNMAFFADVPVTKVVEIHMELMDEFAKKLRVEGRSEDILLDYRLTLIDVIAHLCEMYRRSIPRET
notes: circadian clock protein KaiA of Synechococcus elongatus, native (unmutated); also called native KaiA; KaiA dimer; source: E. coli BL21 or DH5α, pGEX-based construct, purified (glutathione-agarose, HRV3C cleavage on the column, Q Sepharose); not shown: GST, N-terminal, cleaved
In the case of B1, the binding result in assay [1] and in assay [2] was “no binding” in each case.
